According to PMC4214668:
Read-outs that look alike come from different tables or passages of the source. No constants are given. Whether binding was seen depends on the method and setting. For some assays here: Binding seen in cells or lysates may run through a third protein. Some results given as binding are weak or reduced against the parent protein; the word gives no strength. For some assays here: Where a sequence is shown, tags or fusion partners need not be part of it. One block for each molecule: values may come before it.

Sequences of proteins named here, by UniProt entry; tags and fusion partners are left off. A change or cut given only in a name is not applied to a line headed by its entry.
UniProt O00308: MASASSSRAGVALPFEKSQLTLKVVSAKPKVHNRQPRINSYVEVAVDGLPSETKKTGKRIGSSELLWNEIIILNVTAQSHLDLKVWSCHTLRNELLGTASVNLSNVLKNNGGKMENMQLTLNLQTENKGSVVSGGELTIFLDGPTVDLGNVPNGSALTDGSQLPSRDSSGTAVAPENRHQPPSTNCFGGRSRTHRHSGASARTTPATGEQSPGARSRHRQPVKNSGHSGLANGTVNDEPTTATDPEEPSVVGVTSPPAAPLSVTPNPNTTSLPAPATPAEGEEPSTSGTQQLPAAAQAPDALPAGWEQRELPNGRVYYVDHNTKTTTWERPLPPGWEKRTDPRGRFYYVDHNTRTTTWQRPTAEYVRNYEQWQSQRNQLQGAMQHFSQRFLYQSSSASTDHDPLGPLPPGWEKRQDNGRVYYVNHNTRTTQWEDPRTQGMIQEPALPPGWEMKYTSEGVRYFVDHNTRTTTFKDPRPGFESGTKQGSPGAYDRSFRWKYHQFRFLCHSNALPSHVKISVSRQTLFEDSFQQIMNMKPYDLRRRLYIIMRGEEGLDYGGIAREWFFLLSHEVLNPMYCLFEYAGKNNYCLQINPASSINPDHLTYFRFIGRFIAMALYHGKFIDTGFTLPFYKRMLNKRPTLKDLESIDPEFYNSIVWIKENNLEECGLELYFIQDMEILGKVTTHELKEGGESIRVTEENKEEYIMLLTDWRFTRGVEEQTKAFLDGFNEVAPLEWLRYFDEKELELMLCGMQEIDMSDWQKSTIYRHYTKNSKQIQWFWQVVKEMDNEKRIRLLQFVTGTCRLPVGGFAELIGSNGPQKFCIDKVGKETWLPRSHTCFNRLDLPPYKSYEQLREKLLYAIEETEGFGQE
UniProt Q06330: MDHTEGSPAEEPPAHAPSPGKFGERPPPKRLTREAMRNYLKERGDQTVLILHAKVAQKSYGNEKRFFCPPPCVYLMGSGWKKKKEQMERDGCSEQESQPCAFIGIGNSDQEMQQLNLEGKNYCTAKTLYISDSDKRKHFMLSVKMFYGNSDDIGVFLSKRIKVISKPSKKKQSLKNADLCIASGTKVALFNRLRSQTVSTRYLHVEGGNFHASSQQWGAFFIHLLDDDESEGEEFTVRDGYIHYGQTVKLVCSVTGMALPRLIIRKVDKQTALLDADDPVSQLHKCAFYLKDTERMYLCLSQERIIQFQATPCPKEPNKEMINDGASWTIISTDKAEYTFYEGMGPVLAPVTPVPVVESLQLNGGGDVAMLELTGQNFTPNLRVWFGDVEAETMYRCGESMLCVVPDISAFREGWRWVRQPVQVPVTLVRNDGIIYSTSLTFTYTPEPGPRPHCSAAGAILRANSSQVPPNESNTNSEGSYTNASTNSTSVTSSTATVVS
UniProt P46531: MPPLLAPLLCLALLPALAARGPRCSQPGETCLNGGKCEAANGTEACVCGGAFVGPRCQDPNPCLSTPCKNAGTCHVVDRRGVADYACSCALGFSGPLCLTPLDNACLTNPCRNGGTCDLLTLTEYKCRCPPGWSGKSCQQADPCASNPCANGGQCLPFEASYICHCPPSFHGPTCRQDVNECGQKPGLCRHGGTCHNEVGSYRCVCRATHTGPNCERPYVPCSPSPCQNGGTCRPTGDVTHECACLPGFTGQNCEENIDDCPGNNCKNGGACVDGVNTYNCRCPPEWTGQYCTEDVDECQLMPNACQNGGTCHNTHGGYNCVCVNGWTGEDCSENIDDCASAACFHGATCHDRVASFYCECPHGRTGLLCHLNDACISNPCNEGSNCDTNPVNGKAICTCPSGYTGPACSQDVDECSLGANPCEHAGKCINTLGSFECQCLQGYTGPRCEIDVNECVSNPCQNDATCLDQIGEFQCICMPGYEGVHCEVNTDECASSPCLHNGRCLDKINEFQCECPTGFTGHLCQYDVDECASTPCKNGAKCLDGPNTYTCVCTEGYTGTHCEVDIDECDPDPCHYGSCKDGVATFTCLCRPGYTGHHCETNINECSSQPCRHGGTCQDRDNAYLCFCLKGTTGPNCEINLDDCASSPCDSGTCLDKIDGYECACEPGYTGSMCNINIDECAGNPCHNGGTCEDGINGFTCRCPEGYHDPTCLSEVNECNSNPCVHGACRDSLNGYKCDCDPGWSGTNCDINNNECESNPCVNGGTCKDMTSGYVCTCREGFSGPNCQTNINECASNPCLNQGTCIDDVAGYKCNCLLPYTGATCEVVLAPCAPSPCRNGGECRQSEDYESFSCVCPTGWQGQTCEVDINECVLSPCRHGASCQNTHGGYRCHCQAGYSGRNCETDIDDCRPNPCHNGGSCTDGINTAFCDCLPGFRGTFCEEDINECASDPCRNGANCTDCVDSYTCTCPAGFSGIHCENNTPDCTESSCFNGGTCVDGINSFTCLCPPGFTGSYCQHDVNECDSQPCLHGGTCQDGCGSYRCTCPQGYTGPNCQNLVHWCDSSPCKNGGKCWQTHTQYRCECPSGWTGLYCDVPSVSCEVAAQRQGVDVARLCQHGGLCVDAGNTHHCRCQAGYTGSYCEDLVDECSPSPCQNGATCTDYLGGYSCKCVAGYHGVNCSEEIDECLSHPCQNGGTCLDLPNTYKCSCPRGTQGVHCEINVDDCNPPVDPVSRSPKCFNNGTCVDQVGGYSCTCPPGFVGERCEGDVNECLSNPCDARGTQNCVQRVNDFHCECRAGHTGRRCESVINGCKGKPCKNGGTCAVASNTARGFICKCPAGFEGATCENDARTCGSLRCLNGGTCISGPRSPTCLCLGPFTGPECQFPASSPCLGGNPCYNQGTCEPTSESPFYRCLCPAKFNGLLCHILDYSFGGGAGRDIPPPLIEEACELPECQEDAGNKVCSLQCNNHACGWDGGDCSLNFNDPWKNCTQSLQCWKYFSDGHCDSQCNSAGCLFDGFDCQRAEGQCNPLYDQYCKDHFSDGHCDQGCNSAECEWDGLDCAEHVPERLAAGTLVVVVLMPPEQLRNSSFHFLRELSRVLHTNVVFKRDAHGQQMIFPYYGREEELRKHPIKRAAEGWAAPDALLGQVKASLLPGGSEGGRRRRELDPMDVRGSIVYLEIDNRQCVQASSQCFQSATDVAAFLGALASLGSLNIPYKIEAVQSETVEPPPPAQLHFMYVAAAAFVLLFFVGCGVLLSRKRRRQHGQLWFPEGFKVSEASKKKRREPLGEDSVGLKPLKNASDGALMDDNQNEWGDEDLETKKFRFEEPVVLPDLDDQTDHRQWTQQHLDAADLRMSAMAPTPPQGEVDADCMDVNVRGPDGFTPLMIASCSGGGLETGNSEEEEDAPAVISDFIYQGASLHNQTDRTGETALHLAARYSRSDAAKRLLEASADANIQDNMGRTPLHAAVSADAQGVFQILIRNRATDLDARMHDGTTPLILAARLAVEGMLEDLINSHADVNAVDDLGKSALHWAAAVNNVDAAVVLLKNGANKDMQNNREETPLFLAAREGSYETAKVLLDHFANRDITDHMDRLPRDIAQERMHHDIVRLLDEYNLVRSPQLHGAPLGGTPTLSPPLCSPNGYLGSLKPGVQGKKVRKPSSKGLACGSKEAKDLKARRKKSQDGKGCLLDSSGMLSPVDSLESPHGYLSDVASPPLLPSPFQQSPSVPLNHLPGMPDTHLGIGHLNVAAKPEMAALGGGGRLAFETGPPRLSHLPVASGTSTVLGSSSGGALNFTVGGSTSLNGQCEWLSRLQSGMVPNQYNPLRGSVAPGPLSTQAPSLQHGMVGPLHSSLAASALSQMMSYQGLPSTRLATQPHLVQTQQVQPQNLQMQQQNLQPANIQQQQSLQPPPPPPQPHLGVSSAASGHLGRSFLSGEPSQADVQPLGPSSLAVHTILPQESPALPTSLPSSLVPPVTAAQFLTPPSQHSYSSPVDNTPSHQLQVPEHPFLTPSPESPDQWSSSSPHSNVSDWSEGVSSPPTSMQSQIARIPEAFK

Legend:
[1] = biological target: FLAG-tagged WWP2 (wild type, full length) expressed in HEK293T cells (human) (UniProt O00308); test: co-IP; HEK293T (293T, 293) cells transiently co-transfected with FLAG-tagged WWP2 constructs and V5-tagged Notch constructs (in Figure 3 also HA-ubiquitin); lysis in 50 mM Tris pH 8.0, 150 mM NaCl, 1% NP40; IP with anti-FLAG M2 gel or anti-V5 agarose, western blot with the respective antibody
[2] = biological target: recombinant WWP2-GST (human) (UniProt O00308); test: pull-down; GST-WWP2 or control GST bound to glutathione-Sepharose beads, incubated with increasing concentrations of rhN3-ICD for 1 hr at 4°C; western blot with anti-GST or anti-V5; flow through also blotted; both purified
[3] = biological target: RBPJ (CSL), spot on the human proteome microarray (human) (UniProt Q06330); test: peptide or protein array; human proteome microarray of 16,368 full-length human recombinant proteins spotted in duplicate; blocked with 2% BSA in PBS, incubated with purified N3-ICD-V5 for 1 hr at room temperature, washed in TBST, detected with mouse anti-V5 and Alexafluor 647 anti-mouse; both purified
[4] = biological target: WWP2, spot on the human proteome microarray (human) (UniProt O00308); test: as above
[5] = biological target: FLAG-tagged WWP2 (wild type, full length) expressed in HEK293T cells (human) (UniProt O00308); test: co-IP; HEK293T (293T, 293) cells transiently co-transfected with FLAG-tagged WWP2 constructs and V5-tagged Notch constructs (in Figure 3 also HA-ubiquitin); lysis in 50 mM Tris pH 8.0, 150 mM NaCl, 1% NP40; IP with anti-FLAG M2 gel or anti-V5 agarose, western blot with the respective antibody; remark: listed apart in the source

binding [1]: binds
Molecule: Notch1/Notch3 chimera (Notch1 RAM domain and ANK repeats joined to the C-terminal PEST domain of Notch3), V5-tagged (from UniProt P46531 1754-2114; Q9UM47 2026-2321)

binding [2]: binds
binding [3]: binds
binding [4]: binds
B1: recombinant human N3-ICD-V5 (Notch3 intracellular cytoplasmic domain, Met1663-Ala2321) (domain or fragment, UniProt Q9UM47 1663-2321)
chain: MVARRKREHSTLWFPEGFSLHKDVASGHKGRREPVGQDALGMKNMAKGESLMGEVATDWMDTECPEAKRLKVEEPGMGAEEAVDCRQWTQHHLVAADIRVAPAMALTPPQGDADADGMDVNVRGPDGFTPLMLASFCGGALEPMPTEEDEADDTSASIISDLICQGAQLGARTDRTGETALHLAARYARADAAKRLLDAGADTNAQDHSGRTPLHTAVTADAQGVFQILIRNRSTDLDARMADGSTALILAARLAVEGMVEELIASHADVNAVDELGKSALHWAAAVNNVEATLALLKNGANKDMQDSKEETPLFLAAREGSYEAAKLLLDHFANREITDHLDRLPRDVAQERLHQDIVRLLDQPSGPRSPPGPHGLGPLLCPPGAFLPGLKAAQSGSKKSRRPPGKAGLGPQGPRGRGKKLTLACPGPLADSSVTLSPVDSLDSPRPFGGPPASPGGFPLEGPYAAATATAVSLAQLGGPGRAGLGRQPPGGCVLSLGLLNPVAVPLDWARLPPPAPPGPSFLLPLAPGPQLLNPGTPVSPQERPPPYLAVPGHGEEYPAAGAHSSPPKARFLRVPSEHPYLTPSPESPEHWASPSPPSLSDWSESTPSPATATGAMATTTGALPAQPLPLSVPSSLAQAQTQLGPQPEVTPKRQVLA

binding [5]: no binding
B2: V5-tagged Notch4-ICD (Val 1467-Lys 2003) (domain or fragment, UniProt Q99466 1467-2003)
chain: VLQLIRRRRREHGALWLPPGFTRRPRTQSAPHRRRPPLGEDSIGLKALKPKAEVDEDGVVMCSGPEEGEEVGQAEETGPPSTCQLWSLSGGCGALPQAAMLTPPQESEMEAPDLDTRGPDGVTPLMSAVCCGEVQSGTFQGAWLGCPEPWEPLLDGGACPQAHTVGTGETPLHLAARFSRPTAARRLLEAGANPNQPDRAGRTPLHAAVAADAREVCQLLLRSRQTAVDARTEDGTTPLMLAARLAVEDLVEELIAAQADVGARDKWGKTALHWAAAVNNARAARSLLQAGADKDAQDNREQTPLFLAAREGAVEVAQLLLGLGAARELRDQAGLAPADVAHQRNHWDLLTLLEGAGPPEARHKATPGREAGPFPRARTVSVSVPPHGGGALPRCRTLSAGAGPRGGGACLQARTWSVDLAARGGGAYSHCRSLSGVGAGGGPTPRGRRFSAGMRGPRPNPAIMRGRYGVAAGRGGRVSTDDWPCDWVALGACGSASNIPIPPPCLTPSPERGSPQLDCGPPALQEMPINQGGEGKK
